# Test results from patent US20030092619A1.
# Amino acid sequences for entries named in this document (tags omitted). Residues count along the entry.
# NCoA-1 N-terminal fragment spanning amino acids 1 to 781 (P70365, residues 1-781): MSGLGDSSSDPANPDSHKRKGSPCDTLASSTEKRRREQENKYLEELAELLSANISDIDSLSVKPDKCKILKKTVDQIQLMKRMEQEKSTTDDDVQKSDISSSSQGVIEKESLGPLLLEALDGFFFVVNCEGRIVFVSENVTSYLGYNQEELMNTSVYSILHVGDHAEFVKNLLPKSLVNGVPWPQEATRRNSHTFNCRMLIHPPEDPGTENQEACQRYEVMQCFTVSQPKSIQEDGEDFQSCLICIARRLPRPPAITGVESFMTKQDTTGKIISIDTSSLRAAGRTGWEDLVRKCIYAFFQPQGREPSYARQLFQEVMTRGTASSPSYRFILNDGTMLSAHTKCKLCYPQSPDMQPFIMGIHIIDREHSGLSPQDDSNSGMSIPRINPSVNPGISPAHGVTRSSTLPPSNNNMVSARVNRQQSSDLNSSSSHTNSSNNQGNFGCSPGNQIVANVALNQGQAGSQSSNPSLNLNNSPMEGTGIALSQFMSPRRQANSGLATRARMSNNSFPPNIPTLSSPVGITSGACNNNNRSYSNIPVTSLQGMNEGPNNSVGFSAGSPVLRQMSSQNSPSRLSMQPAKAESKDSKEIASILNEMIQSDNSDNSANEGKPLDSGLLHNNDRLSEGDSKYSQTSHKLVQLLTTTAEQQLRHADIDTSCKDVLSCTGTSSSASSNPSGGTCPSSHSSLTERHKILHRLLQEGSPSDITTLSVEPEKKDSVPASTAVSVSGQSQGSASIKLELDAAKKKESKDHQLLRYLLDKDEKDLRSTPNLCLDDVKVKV
# NCoA-1 fragment (1-571) (P70365, residues 1-571): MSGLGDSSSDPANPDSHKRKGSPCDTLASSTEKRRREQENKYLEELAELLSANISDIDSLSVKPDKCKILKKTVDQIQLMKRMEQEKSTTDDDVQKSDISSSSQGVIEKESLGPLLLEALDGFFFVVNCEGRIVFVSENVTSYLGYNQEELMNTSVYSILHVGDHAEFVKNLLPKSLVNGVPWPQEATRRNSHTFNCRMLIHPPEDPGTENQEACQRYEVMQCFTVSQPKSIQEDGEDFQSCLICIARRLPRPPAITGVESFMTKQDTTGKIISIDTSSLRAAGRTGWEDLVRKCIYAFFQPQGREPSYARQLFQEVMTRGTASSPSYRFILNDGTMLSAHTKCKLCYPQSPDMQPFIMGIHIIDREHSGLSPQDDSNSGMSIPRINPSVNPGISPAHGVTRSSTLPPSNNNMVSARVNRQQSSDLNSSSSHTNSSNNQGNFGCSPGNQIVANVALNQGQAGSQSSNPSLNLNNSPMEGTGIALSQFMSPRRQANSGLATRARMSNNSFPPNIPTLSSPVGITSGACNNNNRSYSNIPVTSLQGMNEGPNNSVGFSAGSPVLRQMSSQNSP
# These are yes or no findings as the source states them, for the method shown. In cells and extracts the contact can be indirect. Some entries that bind do so weakly or less than the wild type.
# Molecular target: GST-STAT6 aa 677-847 (human)
# Assay: GST pull-down, in vitro translated 35S-labeled NCoA-1 fragments
row,Substance,binding
1,NCoA-1 fragment (1-571) (from UniProt P70365 1-571),binds
2,NCoA-1 N-terminal fragment spanning amino acids 1 to 781 (from UniProt P70365 1-781),binds
3,NCoA-1 fragment comprising residues 213 to 462 (from UniProt P70365 213-462),binds
